From patent US9333272B2 (Bracco Imaging SpA, priority 2006, dated 2016)

Experiments:
peptide synthesis = conditions: whole synthesis
[1] = general procedure: Fmoc solid-phase peptide synthesis; Fmoc-PAL-PEG-PS resin; HATU/DIEA; DIC/HOBt; HBTU/HOBt/DIPEA
[2] = whole synthesis, scale 130 umol

Aloc-RWQPC*PWESWTFC*WDPGGGK-NH2 Cyclic (5→13) Peptide
isolated yield (peptide synthesis): 21%

RWQPC*PAESWTFC*WDPGGGK(CF5)-NH2
step yield ([1]; late stage modification step): 60.4%

Ac-WQPC*PAESWTFC*WDPGGGK(JJ)-NH2 Cyclic (4→12) Peptide
isolated mass [1, 2]: 42 mg
isolated yield [1, 2]: 13%

Aloc-RWQPC*PAESWTFC*WDPGGGK(CF5)-NH2
conjugation yield ([1]; conjugation step): 62.8%
